Experimental data from paper PMC9404835.
Results are given in words; binding and its absence hold for the method and conditions named. In cells and extracts the contact can be indirect. A result given as binding can be weak or reduced; the word gives no strength.

Sequences of proteins named here, by UniProt entry; tags and fusion partners are left off. A change or cut given only in a name is not applied to a line headed by its entry.
UniProt P32929: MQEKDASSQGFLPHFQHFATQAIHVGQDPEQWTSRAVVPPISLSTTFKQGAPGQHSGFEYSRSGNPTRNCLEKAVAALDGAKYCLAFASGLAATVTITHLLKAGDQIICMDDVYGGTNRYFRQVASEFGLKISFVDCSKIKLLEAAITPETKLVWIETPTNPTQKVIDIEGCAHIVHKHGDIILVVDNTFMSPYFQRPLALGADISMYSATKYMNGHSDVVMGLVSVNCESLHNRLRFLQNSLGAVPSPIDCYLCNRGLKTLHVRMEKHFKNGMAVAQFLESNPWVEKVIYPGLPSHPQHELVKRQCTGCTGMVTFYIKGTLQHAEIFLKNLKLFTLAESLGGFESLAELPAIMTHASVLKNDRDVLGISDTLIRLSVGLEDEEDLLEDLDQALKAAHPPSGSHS
UniProt P42858: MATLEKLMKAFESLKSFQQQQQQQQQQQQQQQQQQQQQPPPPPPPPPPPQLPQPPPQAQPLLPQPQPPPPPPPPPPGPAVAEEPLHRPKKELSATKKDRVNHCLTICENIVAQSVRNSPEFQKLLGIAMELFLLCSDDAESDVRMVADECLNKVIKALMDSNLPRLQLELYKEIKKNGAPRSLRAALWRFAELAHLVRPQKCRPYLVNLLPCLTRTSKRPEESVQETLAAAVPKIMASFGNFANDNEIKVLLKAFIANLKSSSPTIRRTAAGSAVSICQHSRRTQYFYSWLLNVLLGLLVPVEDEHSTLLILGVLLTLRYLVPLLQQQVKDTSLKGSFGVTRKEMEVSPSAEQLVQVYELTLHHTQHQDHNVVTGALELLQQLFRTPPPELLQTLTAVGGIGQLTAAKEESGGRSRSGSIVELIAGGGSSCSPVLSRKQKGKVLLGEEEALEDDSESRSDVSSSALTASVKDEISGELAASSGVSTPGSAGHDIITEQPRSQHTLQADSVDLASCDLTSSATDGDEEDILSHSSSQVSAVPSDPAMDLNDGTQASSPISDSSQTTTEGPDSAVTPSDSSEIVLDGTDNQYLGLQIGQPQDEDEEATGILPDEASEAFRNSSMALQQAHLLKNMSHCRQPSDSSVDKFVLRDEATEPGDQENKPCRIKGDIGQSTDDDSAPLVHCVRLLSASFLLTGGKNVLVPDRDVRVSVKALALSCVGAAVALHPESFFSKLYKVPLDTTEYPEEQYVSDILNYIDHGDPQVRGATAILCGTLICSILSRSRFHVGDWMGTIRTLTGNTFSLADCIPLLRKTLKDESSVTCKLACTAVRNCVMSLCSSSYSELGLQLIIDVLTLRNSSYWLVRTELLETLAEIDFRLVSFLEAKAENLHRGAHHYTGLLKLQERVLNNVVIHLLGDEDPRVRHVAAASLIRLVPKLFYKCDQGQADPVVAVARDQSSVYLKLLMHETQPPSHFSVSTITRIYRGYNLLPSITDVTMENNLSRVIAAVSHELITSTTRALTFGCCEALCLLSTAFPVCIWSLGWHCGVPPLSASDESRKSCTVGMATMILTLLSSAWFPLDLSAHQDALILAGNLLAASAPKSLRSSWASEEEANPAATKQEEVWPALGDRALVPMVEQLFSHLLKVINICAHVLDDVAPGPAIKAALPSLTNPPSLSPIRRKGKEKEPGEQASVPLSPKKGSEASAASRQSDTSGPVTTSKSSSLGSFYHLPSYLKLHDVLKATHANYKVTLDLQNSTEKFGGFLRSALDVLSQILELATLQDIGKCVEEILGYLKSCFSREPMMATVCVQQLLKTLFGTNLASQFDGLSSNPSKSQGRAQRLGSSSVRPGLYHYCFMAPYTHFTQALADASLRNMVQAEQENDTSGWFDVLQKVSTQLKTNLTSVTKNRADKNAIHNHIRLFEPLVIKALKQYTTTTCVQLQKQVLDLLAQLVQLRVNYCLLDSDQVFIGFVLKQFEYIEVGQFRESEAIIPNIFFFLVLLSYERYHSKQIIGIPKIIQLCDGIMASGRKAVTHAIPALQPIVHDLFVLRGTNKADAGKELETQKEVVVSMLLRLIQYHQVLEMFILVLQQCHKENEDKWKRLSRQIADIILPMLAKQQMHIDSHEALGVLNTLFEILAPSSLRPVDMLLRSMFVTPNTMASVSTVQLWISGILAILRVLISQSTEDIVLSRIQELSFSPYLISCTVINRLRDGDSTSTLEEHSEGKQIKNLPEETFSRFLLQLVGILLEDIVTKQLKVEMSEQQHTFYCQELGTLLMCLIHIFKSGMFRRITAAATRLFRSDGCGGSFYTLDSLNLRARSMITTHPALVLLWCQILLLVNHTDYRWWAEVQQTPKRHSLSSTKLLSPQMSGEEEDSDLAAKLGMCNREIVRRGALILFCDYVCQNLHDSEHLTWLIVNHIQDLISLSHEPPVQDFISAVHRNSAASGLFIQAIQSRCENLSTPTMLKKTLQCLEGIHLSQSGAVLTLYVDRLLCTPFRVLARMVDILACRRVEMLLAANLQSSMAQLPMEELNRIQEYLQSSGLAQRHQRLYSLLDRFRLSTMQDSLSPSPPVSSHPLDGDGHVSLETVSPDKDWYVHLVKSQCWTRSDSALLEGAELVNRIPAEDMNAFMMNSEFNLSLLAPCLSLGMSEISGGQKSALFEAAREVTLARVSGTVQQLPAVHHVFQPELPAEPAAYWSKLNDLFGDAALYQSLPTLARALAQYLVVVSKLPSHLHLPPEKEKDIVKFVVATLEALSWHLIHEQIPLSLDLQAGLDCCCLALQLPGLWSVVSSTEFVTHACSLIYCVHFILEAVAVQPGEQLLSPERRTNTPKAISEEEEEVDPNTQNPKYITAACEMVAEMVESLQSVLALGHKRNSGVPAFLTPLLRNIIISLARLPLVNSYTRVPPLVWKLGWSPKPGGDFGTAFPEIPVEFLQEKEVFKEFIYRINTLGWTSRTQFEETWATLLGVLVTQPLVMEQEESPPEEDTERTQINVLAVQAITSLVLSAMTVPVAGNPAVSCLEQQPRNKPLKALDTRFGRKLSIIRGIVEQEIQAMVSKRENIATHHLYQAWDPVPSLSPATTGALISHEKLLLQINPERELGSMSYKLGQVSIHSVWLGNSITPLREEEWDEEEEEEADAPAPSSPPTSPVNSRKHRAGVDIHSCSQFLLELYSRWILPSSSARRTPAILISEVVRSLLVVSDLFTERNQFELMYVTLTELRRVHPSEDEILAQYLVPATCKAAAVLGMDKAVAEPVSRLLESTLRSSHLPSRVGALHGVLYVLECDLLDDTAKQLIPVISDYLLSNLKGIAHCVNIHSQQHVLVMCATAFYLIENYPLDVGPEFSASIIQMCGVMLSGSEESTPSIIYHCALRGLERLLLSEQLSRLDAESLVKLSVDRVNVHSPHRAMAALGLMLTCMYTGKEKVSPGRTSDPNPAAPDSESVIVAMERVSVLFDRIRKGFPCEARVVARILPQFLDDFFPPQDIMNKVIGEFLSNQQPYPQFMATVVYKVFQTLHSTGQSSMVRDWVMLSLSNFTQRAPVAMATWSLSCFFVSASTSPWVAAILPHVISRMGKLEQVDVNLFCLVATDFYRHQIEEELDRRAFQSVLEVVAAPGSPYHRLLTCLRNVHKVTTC

Biological target: myc-tagged cystathionine γ-lyase (CSE) (UniProt P32929)
Assay: co-IP; HEK293 cells co-transfected with myc-CSE and HD17 or HD75 for 24 h; immunoprecipitation with anti-myc antibody (legend; the methods name anti-CSE antibodies), Protein A/G agarose, 4 °C; 50 mM Tris-HCl pH 7.4, 150 mM NaCl, 1% Triton X-100, 1 mM EDTA, 10% glycerol; Western blot

full-length mutant huntingtin (HD75) (from UniProt P42858)
binding: binds
